Like-named read-outs stand apart in the source and are kept apart here. These are yes or no findings as the source states them, for the method shown. Some results given as binding are weak or reduced against the parent protein; the word gives no strength.
B1: AtICE1 (protein, UniProt Q9LSE2 1-494)
chain: MGLDGNNGGGVWLNGGGGEREENEEGSWGRNQEDGSSQFKPMLEGDWFSSNQPHPQDLQMLQNQPDFRYFGGFPFNPNDNLLLQHSIDSSSSCSPSQAFSLDPSQQNQFLSTNNNKGCLLNVPSSANPFDNAFEFGSESGFLNQIHAPISMGFGSLTQLGNRDLSSVPDFLSARSLLAPESNNNNTMLCGGFTAPLELEGFGSPANGGFVGNRAKVLKPLEVLASSGAQPTLFQKRAAMRQSSGSKMGNSESSGMRRFSDDGDMDETGIEVSGLNYESDEINESGKAAESVQIGGGGKGKKKGMPAKNLMAERRRRKKLNDRLYMLRSVVPKISKMDRASILGDAIDYLKELLQRINDLHNELESTPPGSLPPTSSSFHPLTPTPQTLSCRVKEELCPSSLPSPKGQQARVEVRLREGRAVNIHMFCGRRPGLLLATMKALDNLGLDVQQAVISCFNGFALDVFRAEQCQEGQEILPDQIKAVLFDTAGYAGMI

Protein sequences, listed by entry. Tags and fused reporters are not part of them.
UniProt Q9SYS6: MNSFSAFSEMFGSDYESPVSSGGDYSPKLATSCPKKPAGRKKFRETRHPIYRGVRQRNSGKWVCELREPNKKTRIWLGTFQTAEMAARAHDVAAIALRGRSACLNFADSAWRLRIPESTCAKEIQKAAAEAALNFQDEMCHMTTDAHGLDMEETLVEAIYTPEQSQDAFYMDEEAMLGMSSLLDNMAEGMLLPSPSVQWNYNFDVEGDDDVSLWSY
UniProt P93835: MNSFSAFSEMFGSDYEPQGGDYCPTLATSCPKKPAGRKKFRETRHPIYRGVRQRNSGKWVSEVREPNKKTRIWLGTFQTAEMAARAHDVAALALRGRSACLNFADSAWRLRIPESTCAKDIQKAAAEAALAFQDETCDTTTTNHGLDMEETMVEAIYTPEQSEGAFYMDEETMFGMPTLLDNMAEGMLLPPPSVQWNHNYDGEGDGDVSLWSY

Assays:
[1] = molecular target: T1, AtPUB19 (Arabidopsis thaliana) (UniProt O80742); test: two-hybrid; AtPUB19 against AtICE1, AtICE2, AtCBF1 and AtCBF2 (Supplemental Fig. S6); the method is not named in the sentences, which stand among the Y2H results; vectors not told
T1 sequence: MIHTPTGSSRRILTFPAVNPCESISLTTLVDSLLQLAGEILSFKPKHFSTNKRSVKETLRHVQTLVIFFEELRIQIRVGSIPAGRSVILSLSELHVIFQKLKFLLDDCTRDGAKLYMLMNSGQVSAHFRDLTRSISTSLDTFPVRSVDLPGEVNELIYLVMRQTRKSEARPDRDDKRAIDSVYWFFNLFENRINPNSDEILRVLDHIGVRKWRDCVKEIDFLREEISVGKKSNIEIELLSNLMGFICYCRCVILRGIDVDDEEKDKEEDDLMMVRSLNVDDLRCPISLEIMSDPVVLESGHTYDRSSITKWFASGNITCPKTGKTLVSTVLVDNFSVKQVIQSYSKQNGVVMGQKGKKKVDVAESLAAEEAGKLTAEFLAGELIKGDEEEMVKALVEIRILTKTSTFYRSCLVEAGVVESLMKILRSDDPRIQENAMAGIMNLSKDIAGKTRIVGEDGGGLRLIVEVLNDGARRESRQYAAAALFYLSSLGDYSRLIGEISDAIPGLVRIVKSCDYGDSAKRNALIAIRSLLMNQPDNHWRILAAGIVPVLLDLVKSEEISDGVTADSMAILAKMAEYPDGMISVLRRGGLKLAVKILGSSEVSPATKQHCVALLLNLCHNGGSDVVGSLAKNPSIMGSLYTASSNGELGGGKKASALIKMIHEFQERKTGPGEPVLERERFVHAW

[2] = molecular target: T1, AtPUB19 (Arabidopsis thaliana); test: as above; remark: listed apart in the source

Molecule	binding [1]	binding [2]
AtCBF2 (from UniProt Q9SYS6 1-216)	binds	–
AtCBF1 (from UniProt P93835 1-213)	binds	–
B1	–	binds

Source: PMC11822393
